Measured values: patent US10660967B2, “Curcumin conjugates and methods of use thereof” (priority 2016, dated 2020)
Values joined by “and” are separate entries in the source; they are usually repeats but may differ in a detail not shown here. Equal entries are not always repeated. The name of at least one read-out is uncertain.

System: MCF-7 cells
Assay: Effect on doxorubicin induced cytotoxicity (MTT)
Details: 10 μM DOX in combination with 100 μM curcumin derivative, 48 hr
Method: The effects of curcumin conjugates on doxorubicin induced cytotoxicity were evaluated. In order to further examine whether curcumin derivatives can enhance conventional chemotherapeutic agents, MCF-7 cells were treated with 100 μM curcumin derivatives alone or in combination with 10 μM doxorubicin (DOX) for 48 hr. Control cultures received only medium, vehicle (DMSO), or vehicle+DOX. The percentage of viable cells was determined by MTT assay according to equation (5): […]

In the case of COc1cc(/C=C/C(=O)CC(=O)/C=C/c2ccc(OC(=O)[C@H](C)NC(=O)OCC3c4ccccc4-c4ccccc43)c(OC)c2)ccc1OC(=O)[C@H](C)NC(=O)OCC1c2ccccc2-c2ccccc21 [Fmoc-Ala-Cur, ((1E,6E)-3,5-dioxohepta-1,6-diene-1,7-diyl)bis(2-methoxy-4,1-phenylene) (2S,2′S)-bis(2-((((9H-fluoren-9-yl)methoxy)carbonyl)amino)propanoate)], the “Percentage of viable cells MCF-7 (average ± SD)” value is reported as 37.5 and 37.55 ± 2.72.
